Source: the supplement of paper PMC3334620
Whole data set: some 33,000 sequences, median “E-score (-0.5 to 0.5)” near -8e-05, cut for the highest 2% near 0.23. This is one part of the list.

Target: T1, Nrg2 (UniProt P38082)
T1 sequence: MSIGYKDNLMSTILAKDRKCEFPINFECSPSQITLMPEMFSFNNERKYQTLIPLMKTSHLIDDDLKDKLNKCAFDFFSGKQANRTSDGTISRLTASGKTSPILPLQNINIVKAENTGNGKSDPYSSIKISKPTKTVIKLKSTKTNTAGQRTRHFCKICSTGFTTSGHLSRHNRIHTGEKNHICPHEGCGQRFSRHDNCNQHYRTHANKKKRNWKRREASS
Assay: PBM E-score (8-mer binding enrichment) (E-score (-0.5 to 0.5)); higher = stronger / more preferred TF binding
Settings: protein concentration: 100 nM; construct: GST-full length
Method in brief: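 Detection of bound protein used fluorescent anti-GST, with scans normalised by masliner. The proteins were GST-tagged yeast transcription factors applied at about 100-200 nM to universal all-10-mer Agilent arrays made double-stranded by primer extension. Each ungapped eight-base word, pooled with its reverse complement, was scored with an E-score from the Universal PBM Analysis Suite.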

Going from AATGTAGA to AGCTTGCG, the “PBM E-score” value falls from -0.0128 to -0.168.

Going from AAATTAAT to TGACGCCA, the “PBM E-score” value falls from 0.00279 to -0.129.

Compared with CATATGGA, GCCTTAGA is lower in “PBM E-score” value: 0.105 for the first, -0.187 for the second.

Compared with CCTACACC, GAGCCGAC is lower in “PBM E-score” value: -0.103 for the first, -0.343 for the second.

Going from CGCCTATA to ATTGCCCA, the “PBM E-score” value rises from -0.127 to 0.0319.

Compared with CTGAGAAG, ACTAACCC is higher in “PBM E-score” value: -0.0101 for the first, 0.114 for the second.

First: GACGGAGA
Second: TCGTGTAA
The “PBM E-score” value of the first is lower: -0.0952 for the first, 0.0362 for the second.

Going from AGTCATCG to CTCCAGAG, the “PBM E-score” value falls from -0.07 to -0.0899.

Going from GTGACATA to AGGACTGG, the “PBM E-score” value falls from 0.0599 to -0.176.

Going from CCTCCTAG to GGGTGTAA, the “PBM E-score” value rises from 0.00177 to 0.0253.

Compared with AATTCAAA, ACCAAGGG is higher in “PBM E-score” value: 0.0169 for the first, 0.141 for the second.

Going from ATAGTCAA to GGTCGCGA, the “PBM E-score” value rises from -0.00877 to 0.242.

First: AGGGTGCC
Second: ACGGACAT
The “PBM E-score” value of the first is lower: -0.00542 for the first, 0.0308 for the second.

Going from AGCAGACA to CACAAAGG, the “PBM E-score” value rises from -0.164 to -0.00781.

Going from CCACAGCC to CCCAGTCC, the “PBM E-score” value falls from -0.108 to -0.141.

First: CCCACTGA
Second: ATCACAAT
The “PBM E-score” value of the first is lower: 0.0719 for the first, 0.128 for the second.

Going from CACGGAAA to GAGTCCGC, the “PBM E-score” value falls from 0.0406 to -0.235.

Going from TAGATGGA to GTAGAATA, the “PBM E-score” value rises from -0.00164 to 0.101.

Compared with GGACGCAC, CTAGCAAC is lower in “PBM E-score” value: 0.137 for the first, 0.0101 for the second.

Compared with ACGTGACG, TCCACGCA is higher in “PBM E-score” value: -0.0649 for the first, -0.0452 for the second.

First: GTATCGGA
Second: ACACGAAT
The “PBM E-score” value of the first is lower: -0.0682 for the first, 0.167 for the second.

First: CAGCTCGG
Second: AACCTAAT
The “PBM E-score” value of the first is higher: -0.0886 for the first, -0.115 for the second.

Compared with AAGCCAGA, CTGCCTGA is higher in “PBM E-score” value: -0.12 for the first, 0.148 for the second.

Going from AATATGAA to ATTCCGCG, the “PBM E-score” value falls from 0.177 to 0.107.

Going from ACTACCGA to GCGCCCGA, the “PBM E-score” value rises from -0.194 to -0.0267.

Going from GTTACTTA to AGTTTTAG, the “PBM E-score” value falls from 0.0291 to -0.0386.

Going from AAGACGCA to CACCAGAG, the “PBM E-score” value falls from 0.00998 to -0.0636.

First: TAGCGACA
Second: AAATAAGG
The “PBM E-score” value of the first is lower: 0.00083 for the first, 0.182 for the second.

First: AGCTCCAC
Second: ACACGATG
The “PBM E-score” value of the first is lower: -0.0768 for the first, 0.0457 for the second.

Compared with AGGAAGAC, GCATTAAC is higher in “PBM E-score” value: -0.26 for the first, 0.026 for the second.

Compared with ATCGGCGC, ACGCCTCA is lower in “PBM E-score” value: 0.0976 for the first, -0.0876 for the second.

Going from GGTATAAC to TCGGGGCA, the “PBM E-score” value rises from -0.0672 to 0.0321.

Compared with TCATCGGA, CCAGAAGG is lower in “PBM E-score” value: -0.0277 for the first, -0.12 for the second.

First: GTGCTTAA
Second: ATCGTCAC
The “PBM E-score” value of the first is lower: 0.0625 for the first, 0.139 for the second.

Going from TAGGATAA to CGCTAACC, the “PBM E-score” value falls from 0.0441 to -0.175.

Compared with GACCTCCC, ACATTTTC is higher in “PBM E-score” value: -0.276 for the first, 0.158 for the second.

Compared with ATCCTAAA, GGACATGA is higher in “PBM E-score” value: -0.245 for the first, -0.12 for the second.

Going from ACTGACAA to GCAAGTCA, the “PBM E-score” value falls from 0.147 to 0.107.

Compared with ACAACTAA, ACCTAATA is lower in “PBM E-score” value: 0.199 for the first, 0.0545 for the second.

First: ACTCGTGC
Second: GAAGTTTA
The “PBM E-score” value of the first is higher: 0.025 for the first, -0.117 for the second.

Going from AGTCGGCG to GAGGGATC, the “PBM E-score” value falls from -0.00183 to -0.0455.

Going from GACGACTC to CCCAACGA, the “PBM E-score” value rises from -0.115 to -0.0538.

Going from ACCTTAGT to CCAACGCA, the “PBM E-score” value rises from -0.13 to 0.0458.

First: TAAGCAGA
Second: AGACCTCA
The “PBM E-score” value of the first is higher: -0.0105 for the first, -0.0584 for the second.

First: AACCTGAC
Second: AGGACTCA
The “PBM E-score” value of the first is higher: 0.124 for the first, -0.0525 for the second.

First: CACGATCA
Second: CGCATGCC
The “PBM E-score” value of the first is lower: 0.0687 for the first, 0.145 for the second.

Compared with ACCTGCGG, AGGTACTC is higher in “PBM E-score” value: -0.0875 for the first, -0.0181 for the second.

Going from ATGGCTCA to AATGTCCT, the “PBM E-score” value falls from 0.0166 to -0.173.

Compared with AGCTGAAA, GTAGGCCA is lower in “PBM E-score” value: 0.0993 for the first, 0.0112 for the second.

First: CAGTGGCG
Second: AGATGCTC
The “PBM E-score” value of the first is higher: 0.0347 for the first, -0.00609 for the second.

Going from ACGTGTTG to CGTCCCAG, the “PBM E-score” value falls from -0.157 to -0.162.

Going from CGACATAA to GAAGTTGC, the “PBM E-score” value falls from 0.0746 to -0.173.

Going from AGCTATAC to ACCGATGG, the “PBM E-score” value rises from -0.101 to -0.0725.

First: CTCGCAGC
Second: GATAACAA
The “PBM E-score” value of the first is lower: -0.0795 for the first, 0.12 for the second.

Going from GATGGCCC to GAAGACTA, the “PBM E-score” value rises from -0.165 to 0.0486.

Compared with GCTACTTA, ATGGCGTA is higher in “PBM E-score” value: -0.0897 for the first, -0.0674 for the second.

Going from ACTAACGG to CGCTCGAG, the “PBM E-score” value rises from -0.171 to 0.17.

First: AGGGTGGC
Second: GCGTCCCC
The “PBM E-score” value of the first is higher: 0.0781 for the first, -0.0906 for the second.

Going from CATGGTGA to ACTCGCCT, the “PBM E-score” value rises from -0.0162 to 0.063.

Going from GACTGAGA to CTACTCCA, the “PBM E-score” value rises from -0.102 to 0.0521.

First: ACCGACCT
Second: CCCTAGTA
The “PBM E-score” value of the first is lower: -0.00096 for the first, 0.00391 for the second.

Going from CTCCACGC to CTACCTAA, the “PBM E-score” value rises from -0.147 to 0.0556.

Compared with GGAATGTA, GACTCTGC is lower in “PBM E-score” value: 0.0991 for the first, 0.0281 for the second.

First: AAAACTAC
Second: AGCTGGAC
The “PBM E-score” value of the first is higher: 0.152 for the first, -0.109 for the second.

Compared with AAAAGGAA, GGGCCAAC is lower in “PBM E-score” value: -0.0391 for the first, -0.13 for the second.

Going from CTTTGGCA to AACAGGAT, the “PBM E-score” value rises from -0.295 to 0.00796.

Going from CCAATGTC to ACCGGACC, the “PBM E-score” value rises from -0.167 to -0.13.

Going from CCCAGGGC to GGTCAAAA, the “PBM E-score” value rises from -0.0217 to 0.0984.

Compared with CATGGCTC, CATGTGAA is lower in “PBM E-score” value: 0.0158 for the first, 0.00961 for the second.

First: ACCAATAG
Second: CCTCTGCC
The “PBM E-score” value of the first is higher: -0.169 for the first, -0.176 for the second.

Going from AAGCACCA to AATGCCCG, the “PBM E-score” value rises from -0.106 to -0.0464.

Going from CGAATGTC to AGTGCTTG, the “PBM E-score” value falls from 0.0289 to -0.0643.

Compared with AACATACG, CTCTCCTA is lower in “PBM E-score” value: 0.0129 for the first, -0.134 for the second.

Going from ATTTGCCG to GAATAGCC, the “PBM E-score” value falls from 0.03 to -0.107.

Going from GAAGGACC to AGTGGTTG, the “PBM E-score” value rises from -0.0588 to 0.0225.

Compared with ACGGCGTG, CGAGTTTC is higher in “PBM E-score” value: 0.0673 for the first, 0.155 for the second.

Compared with GAGGCTAC, AATAGGCA is higher in “PBM E-score” value: -0.265 for the first, 0.158 for the second.

Compared with ATGAACAA, AACAGCGA is lower in “PBM E-score” value: 0.13 for the first, -0.205 for the second.

Compared with AGCTGTAT, GGACGCGA is higher in “PBM E-score” value: -0.146 for the first, 0.0612 for the second.

Compared with CCGCTAGC, TAGCAACA is higher in “PBM E-score” value: -0.16 for the first, 0.135 for the second.

First: ACCTTACC
Second: ACGAAGGA
The “PBM E-score” value of the first is higher: 0.143 for the first, -0.0183 for the second.

First: ACTGTAGG
Second: TCATTAAA
The “PBM E-score” value of the first is lower: 0.116 for the first, 0.35 for the second.

Going from CTTACGTC to AAAGGTCG, the “PBM E-score” value rises from -0.182 to -0.137.

Going from GTTATGGA to CTTAGTAA, the “PBM E-score” value falls from 0.223 to 0.0233.

Compared with TCTTAAAA, TCCATGCA is higher in “PBM E-score” value: -0.118 for the first, 0.0936 for the second.

Compared with AGCACGCT, ACTCTACA is higher in “PBM E-score” value: -0.147 for the first, -0.053 for the second.
